Test results published in the supplement of paper PMC12823440, “Inhibitors supercharge kinase turnover through native proteolytic circuits” (Nature, 2025).
Counter-ions that a name gives are not always drawn. The list shows a part of the results. Hit calls seldom repeat between salt and free forms of one compound.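 Kinases, fused to nanoluciferase, were expressed in K562 cells; luminescence was measured every 4 h from 2 to 18 h as percent of control (DMSO = 100%, positive control = 0%). A time point is decreased if signal falls significantly (2 sigma). Hits were called by the authors by a rule that is not shown; the count of time points alone does not decide it.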

Protein sequences, listed by entry. Tags and fused reporters are not part of them. Lines headed by an entry give the natural chain unless they say otherwise; changes in a name come on top.
UniProt Q05397, whole entry, looked up: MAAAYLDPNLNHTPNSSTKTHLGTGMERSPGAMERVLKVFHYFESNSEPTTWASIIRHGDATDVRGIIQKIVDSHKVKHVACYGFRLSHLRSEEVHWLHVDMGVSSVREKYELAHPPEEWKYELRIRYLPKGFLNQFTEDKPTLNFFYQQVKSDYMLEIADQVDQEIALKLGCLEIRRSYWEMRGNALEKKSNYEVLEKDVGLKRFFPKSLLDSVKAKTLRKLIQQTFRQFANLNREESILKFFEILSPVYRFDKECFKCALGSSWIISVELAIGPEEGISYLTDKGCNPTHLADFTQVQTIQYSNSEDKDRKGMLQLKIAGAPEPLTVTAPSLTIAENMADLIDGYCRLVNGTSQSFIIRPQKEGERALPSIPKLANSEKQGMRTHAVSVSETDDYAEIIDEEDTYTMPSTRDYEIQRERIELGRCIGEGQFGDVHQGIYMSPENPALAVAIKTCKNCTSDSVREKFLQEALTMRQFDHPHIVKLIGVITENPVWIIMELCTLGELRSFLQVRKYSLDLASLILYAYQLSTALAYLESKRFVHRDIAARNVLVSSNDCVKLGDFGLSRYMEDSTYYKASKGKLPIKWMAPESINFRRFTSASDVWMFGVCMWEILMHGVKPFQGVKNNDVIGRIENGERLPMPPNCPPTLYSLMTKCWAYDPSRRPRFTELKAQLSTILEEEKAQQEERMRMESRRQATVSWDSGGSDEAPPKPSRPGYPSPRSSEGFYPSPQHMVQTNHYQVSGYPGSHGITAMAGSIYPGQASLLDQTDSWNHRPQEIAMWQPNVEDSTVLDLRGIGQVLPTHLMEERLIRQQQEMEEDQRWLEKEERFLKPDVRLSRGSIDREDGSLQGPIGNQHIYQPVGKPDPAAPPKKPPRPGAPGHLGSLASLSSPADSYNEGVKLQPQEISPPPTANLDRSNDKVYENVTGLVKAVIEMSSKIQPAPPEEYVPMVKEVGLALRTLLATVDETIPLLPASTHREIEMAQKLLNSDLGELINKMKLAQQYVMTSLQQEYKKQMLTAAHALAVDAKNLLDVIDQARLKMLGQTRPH
UniProt Q14289, whole entry, looked up: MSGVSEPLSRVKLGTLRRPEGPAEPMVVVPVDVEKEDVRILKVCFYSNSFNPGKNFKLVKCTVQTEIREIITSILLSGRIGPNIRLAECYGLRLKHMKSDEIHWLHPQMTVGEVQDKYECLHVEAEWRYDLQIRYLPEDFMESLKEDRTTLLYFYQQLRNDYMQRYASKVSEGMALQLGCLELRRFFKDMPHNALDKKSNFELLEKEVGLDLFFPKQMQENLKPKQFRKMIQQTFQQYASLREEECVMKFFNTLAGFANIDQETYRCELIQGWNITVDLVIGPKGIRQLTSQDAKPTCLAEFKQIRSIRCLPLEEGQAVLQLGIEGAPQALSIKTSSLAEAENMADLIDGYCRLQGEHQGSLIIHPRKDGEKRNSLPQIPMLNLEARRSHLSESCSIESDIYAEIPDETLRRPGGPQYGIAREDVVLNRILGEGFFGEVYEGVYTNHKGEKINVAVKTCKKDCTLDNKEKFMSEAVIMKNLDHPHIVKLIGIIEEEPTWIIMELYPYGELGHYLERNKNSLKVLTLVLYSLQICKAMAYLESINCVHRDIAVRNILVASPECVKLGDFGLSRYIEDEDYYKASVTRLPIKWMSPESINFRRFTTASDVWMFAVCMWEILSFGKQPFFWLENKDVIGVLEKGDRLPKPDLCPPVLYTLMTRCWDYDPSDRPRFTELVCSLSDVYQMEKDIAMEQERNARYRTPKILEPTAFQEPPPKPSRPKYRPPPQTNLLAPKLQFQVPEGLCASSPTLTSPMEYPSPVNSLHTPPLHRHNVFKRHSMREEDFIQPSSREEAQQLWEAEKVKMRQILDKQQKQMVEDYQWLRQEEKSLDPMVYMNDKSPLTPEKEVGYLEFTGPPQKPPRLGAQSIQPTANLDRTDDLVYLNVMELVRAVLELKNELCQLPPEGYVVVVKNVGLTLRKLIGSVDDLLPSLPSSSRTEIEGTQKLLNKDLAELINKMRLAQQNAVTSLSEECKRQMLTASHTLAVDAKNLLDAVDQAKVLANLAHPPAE
UniProt Q15418, whole entry: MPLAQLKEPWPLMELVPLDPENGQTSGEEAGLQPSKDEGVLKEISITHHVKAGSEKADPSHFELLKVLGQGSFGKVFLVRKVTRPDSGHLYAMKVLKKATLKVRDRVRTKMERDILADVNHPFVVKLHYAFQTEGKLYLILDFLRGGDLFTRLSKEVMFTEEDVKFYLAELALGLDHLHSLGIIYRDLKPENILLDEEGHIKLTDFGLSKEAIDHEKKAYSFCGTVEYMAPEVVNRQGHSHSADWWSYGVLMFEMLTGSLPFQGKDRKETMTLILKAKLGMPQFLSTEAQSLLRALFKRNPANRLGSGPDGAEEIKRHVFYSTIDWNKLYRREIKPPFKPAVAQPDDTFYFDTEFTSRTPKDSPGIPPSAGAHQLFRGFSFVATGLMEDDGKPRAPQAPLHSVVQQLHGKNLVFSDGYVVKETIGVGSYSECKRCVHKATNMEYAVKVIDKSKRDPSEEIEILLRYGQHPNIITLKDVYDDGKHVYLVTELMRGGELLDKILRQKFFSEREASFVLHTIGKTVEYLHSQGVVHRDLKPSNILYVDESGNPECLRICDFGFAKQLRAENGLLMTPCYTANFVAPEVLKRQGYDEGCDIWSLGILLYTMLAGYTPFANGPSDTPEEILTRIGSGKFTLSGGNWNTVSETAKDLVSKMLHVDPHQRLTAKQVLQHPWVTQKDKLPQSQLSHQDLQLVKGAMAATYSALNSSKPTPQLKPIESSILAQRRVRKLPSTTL
UniProt Q9NYA1, whole entry: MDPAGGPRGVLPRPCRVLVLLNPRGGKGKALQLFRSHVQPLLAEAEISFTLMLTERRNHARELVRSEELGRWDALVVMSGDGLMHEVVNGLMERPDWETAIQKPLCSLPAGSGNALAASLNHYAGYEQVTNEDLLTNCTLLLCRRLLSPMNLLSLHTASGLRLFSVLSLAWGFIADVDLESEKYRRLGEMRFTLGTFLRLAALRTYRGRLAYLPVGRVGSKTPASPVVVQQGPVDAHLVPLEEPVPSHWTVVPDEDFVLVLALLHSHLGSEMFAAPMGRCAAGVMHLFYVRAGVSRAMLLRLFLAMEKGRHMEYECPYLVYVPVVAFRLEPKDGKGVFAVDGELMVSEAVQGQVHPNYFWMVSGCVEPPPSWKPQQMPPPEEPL
UniProt Q9Y6E0: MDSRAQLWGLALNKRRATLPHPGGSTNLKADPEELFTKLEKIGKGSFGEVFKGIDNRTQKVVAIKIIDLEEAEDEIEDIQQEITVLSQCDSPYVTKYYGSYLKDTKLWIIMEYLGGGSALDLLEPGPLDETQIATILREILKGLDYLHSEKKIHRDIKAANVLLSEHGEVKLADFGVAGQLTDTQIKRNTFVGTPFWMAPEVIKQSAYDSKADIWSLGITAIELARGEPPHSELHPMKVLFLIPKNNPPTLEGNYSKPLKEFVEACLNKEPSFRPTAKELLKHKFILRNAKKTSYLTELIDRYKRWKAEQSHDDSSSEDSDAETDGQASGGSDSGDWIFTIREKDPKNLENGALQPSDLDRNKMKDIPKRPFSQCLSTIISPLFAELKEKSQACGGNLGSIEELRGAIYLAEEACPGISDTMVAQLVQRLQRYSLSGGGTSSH
UniProt Q15208: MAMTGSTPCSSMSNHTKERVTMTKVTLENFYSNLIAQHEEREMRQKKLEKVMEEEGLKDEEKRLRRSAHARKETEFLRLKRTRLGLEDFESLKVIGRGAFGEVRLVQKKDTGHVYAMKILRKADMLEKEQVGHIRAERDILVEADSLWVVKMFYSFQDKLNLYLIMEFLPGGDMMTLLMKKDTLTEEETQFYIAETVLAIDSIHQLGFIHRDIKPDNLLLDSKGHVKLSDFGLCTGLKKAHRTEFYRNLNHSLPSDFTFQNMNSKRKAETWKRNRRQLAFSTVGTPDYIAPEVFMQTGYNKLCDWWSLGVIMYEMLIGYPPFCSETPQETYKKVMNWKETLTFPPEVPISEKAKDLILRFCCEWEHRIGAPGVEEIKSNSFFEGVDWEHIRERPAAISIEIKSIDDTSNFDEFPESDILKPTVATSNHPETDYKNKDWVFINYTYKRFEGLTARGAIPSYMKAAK
UniProt P42680: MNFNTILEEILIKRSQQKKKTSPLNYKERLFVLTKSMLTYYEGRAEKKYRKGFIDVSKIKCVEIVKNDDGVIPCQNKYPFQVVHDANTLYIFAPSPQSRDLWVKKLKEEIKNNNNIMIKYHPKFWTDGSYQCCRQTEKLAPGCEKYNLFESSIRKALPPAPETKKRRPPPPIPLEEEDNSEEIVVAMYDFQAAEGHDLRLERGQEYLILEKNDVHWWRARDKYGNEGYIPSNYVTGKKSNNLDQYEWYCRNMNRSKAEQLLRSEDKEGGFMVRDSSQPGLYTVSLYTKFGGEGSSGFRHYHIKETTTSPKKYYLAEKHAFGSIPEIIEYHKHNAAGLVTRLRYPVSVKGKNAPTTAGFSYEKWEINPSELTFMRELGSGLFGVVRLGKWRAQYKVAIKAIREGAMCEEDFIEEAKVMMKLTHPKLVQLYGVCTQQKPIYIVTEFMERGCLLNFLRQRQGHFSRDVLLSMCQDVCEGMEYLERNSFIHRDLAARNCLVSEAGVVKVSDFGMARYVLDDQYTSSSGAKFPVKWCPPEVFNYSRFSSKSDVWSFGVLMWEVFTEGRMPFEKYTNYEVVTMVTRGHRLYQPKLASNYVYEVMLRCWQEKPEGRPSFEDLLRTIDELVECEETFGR
UniProt P29597: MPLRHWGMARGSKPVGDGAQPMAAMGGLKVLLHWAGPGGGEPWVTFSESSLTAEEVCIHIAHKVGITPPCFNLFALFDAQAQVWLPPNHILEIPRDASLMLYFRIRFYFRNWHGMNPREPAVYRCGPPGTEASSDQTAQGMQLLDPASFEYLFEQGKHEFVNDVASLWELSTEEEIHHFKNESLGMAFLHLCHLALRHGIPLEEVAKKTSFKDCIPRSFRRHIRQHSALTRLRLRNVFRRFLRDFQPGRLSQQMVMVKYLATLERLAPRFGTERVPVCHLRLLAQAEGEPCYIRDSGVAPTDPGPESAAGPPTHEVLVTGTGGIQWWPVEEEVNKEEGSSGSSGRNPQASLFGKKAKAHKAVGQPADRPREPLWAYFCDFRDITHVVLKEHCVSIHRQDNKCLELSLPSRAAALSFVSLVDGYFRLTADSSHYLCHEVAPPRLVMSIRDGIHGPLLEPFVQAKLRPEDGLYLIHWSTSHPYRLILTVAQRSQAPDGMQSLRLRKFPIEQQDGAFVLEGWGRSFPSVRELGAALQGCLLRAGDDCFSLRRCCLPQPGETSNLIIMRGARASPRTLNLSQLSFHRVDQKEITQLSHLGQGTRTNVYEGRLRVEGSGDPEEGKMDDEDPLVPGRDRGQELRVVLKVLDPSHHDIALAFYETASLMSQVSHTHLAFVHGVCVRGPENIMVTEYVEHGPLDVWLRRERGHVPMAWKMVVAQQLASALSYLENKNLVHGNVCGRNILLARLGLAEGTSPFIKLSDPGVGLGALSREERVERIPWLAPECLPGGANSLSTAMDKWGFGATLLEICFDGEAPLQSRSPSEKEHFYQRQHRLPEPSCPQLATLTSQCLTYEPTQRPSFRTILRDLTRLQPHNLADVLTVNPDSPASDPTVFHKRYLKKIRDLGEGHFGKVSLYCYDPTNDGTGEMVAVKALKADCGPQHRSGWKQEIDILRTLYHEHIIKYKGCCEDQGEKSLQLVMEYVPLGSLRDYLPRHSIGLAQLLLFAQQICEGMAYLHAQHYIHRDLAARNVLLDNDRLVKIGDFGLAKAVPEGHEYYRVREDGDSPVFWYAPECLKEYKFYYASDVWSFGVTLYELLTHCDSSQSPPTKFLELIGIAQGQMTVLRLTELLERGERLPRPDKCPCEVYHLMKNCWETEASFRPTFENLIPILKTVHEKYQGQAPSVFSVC
UniProt Q6PHR2: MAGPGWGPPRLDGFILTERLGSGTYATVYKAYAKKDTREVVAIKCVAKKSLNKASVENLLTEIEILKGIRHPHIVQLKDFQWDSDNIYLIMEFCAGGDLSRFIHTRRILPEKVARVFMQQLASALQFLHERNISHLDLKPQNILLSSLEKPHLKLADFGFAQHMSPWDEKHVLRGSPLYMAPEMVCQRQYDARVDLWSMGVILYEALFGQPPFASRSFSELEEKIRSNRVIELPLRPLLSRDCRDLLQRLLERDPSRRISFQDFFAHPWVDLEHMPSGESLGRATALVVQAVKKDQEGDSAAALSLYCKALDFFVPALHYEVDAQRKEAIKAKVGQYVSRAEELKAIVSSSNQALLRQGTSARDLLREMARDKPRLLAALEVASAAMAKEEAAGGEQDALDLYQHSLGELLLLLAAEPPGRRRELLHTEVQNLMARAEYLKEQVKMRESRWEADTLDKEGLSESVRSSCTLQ

Key:
Assay in all cases: number of time points (of 5) at which kinase-Nluc abundance scored as decreased, DMSO-normalised (count); higher = more persistent destabilization
Conditions in all cases: K562; 2-18 h
PRKCA = PRKCA (UniProt P17252)
PTK2 = PTK2 (UniProt Q05397)
PTK2B = PTK2B (UniProt Q14289)
RAF1 = RAF1 (UniProt P04049)
[1] = target: RAF1_S257L (clone: RAF1_mut) (UniProt P04049)
RET = RET (UniProt P07949)
[2] = target: RET_M918T (clone: RET_mut) (UniProt P07949)
RIOK1 = RIOK1 (UniProt Q9BRS2)
RIPK1 = RIPK1 (UniProt Q13546)
RIPK2 = RIPK2 (UniProt O43353)
ROR2 = ROR2 (UniProt Q01974)
RPS6KA1 = RPS6KA1 (UniProt Q15418)
SPHK1 = SPHK1 (UniProt Q9NYA1)
SRC = SRC (UniProt P12931)
STK24 = STK24 (UniProt Q9Y6E0)
STK38 = STK38 (UniProt Q15208)
SYK = SYK (UniProt P43405)
TEC = TEC (UniProt P42680)
TYK2 = TYK2 (UniProt P29597)
ULK3 = ULK3 (UniProt Q6PHR2)

Measured: number of time points

NC(=S)n1[nH]c(-c2ccc([N+](=O)[O-])cc2)c(N=Nc2cccc(Cl)c2)c1=O (2.5 µM)
1: PTK2 | SPHK1
0: all other assays above

Nc1nc(N)c2nc(-c3cccc(O)c3)cnc2n1 (10 µM)
0: all assays above

O=C(Nc1nc2ccccc2[nH]1)c1cccc([N+](=O)[O-])c1 [IRAK-4 protein kinase inhibitor 2] (10 µM)
0: all assays above

CC(C)=CCc1c(-c2ccc(O)cc2O)oc2c3c(cc(O)c2c1=O)OC(C)(C)C=C3 [Morusin] (2.5 µM)
0: all assays above

O=C1NC(=O)C(c2cnc3ccccn23)=C1c1cn2c3c(cc(F)cc13)CNCC2 [GSK-3 inhibitor 1] (2.5 µM)
0: all assays above

Oc1cc(O)c2c(c1)OC1(c3ccc(O)c(O)c3)Oc3cc(O)c4c(c3C2C1O)OC(c1ccc(O)c(O)c1)C(O)C4 (stereo not given) [Procyanidin A1] (10 µM)
0: all assays above

O=Nc1c2[nH]c3ccccc3nc-2c2ccccc12 [IQ-1S (free acid)] (2.5 µM)
0: all assays above

CCOC(=O)N1C/C(=C/c2ccccc2F)C(=O)/C(=C\c2ccccc2F)C1 (2.5 µM)
0: all assays above

CC[C@@](C)(Nc1ccnc(-c2c[nH]c3ncccc23)n1)C(=O)NCC(F)(F)F [Decernotinib] (10 µM)
0: all assays above

CC(C)CNc1ccnc(NCc2csc(-c3ccccc3)n2)n1 [KHS101 hydrochloride] (2.5 µM)
2: RAF1
1: [1] | RIPK1 | RIPK2
0: all other assays above

O=C1NC(=O)/C(=C/c2ccc3nccc(-c4ccncc4)c3c2)S1 (10 µM)
4: TYK2
2: PTK2
0: all other assays above

COc1cc(N2CCOCC2)ccc1NC(=O)c1csc(-c2cccnc2)n1 [IRAK inhibitor 6] (10 µM)
0: all assays above

Cc1nn(C)c2c1C(c1ccc(C(F)(F)F)cc1)C(C#N)=C(N)O2 (stereo not given) (10 µM)
0: all assays above

CNC(=O)c1ccccc1Nc1nc(Nc2ccc3c(c2OC)CCC[C@H](N2CCN(CCO)CC2)C3)ncc1Cl (10 µM)
3: [2] | RIPK1 | ULK3
2: PTK2 | RAF1 | RIOK1 | RIPK2
4: [1] | TYK2
0: all other assays above

COc1ccc(S(=O)(=O)NCc2ccc(C(=O)NCCc3ccc(Cl)cn3)cc2)cc1 (10 µM)
0: all assays above

Cn1cc(C2=C(c3cccc(N)c3)C(=O)NC2=O)c2ccccc21 (10 µM)
0: all assays above

C[C@@H]1CN(c2cc(-c3n[nH]c4ccc(OC5(C)CC5)cc34)ncn2)C[C@H](C)O1 (10 µM)
0: all assays above

CCn1c(=O)c(-c2cc[nH]n2)cc2c(C)nc(N)nc21 [Voxtalisib] (10 µM)
2: PTK2 | RIPK1
0: all other assays above

COc1ccc(-c2c(C)nn3c(NCCN4CCOCC4)cc(C)nc23)cc1OC (10 µM)
0: all assays above

O=[N+]([O-])c1ccc(Nc2nc(N3CCOCC3)nc(N3CCOCC3)n2)cc1 (10 µM)
0: all assays above

C[C@H](Nc1ncnc2[nH]cnc12)c1cc2ccc(F)cc2nc1-c1ccccn1 (10 µM)
0: all assays above

C#Cc1cccc(Nc2ncnc3cc(OC)c(OCCCCCCC(=O)NO)cc23)c1 (2.5 µM)
0: all assays above

C=CC(=O)Nc1cc(Nc2nccc(-n3cc(CN(C)C)c(-c4ccccc4)n3)n2)c(OC)cc1N1CCOCC1 [Lazertinib] (10 µM)
0: all assays above

CC(C)C[C@@H](C(=O)Nc1ccn(C[C@@H](O)CO)n1)N1CC(Oc2ccccc2Cl)=CC1=O [Dorzagliatin] (10 µM)
0: all assays above

CCc1cncnc1N1CCN(Cc2nc3ccc(C(F)(F)F)cc3[nH]2)CC1 (10 µM)
0: all assays above

Cc1ccc(C(=O)Nc2sc(Nc3ccccc3)nc2C(N)=O)cc1 (10 µM)
0: all assays above

Cc1cc(Nc2nc(CC3(C(=O)O)CCN(C(=O)c4cccc(Cl)c4Cl)CC3)ccc2F)n[nH]1 (10 µM)
3: [1]
1: RAF1 | RET | RIOK1 | RIPK2 | ULK3
2: TYK2
0: all other assays above

Cc1ccc(NC(=O)c2ccnc(C(F)(F)F)c2)cc1-c1cc(OCCO)nc(N2CCOCC2)c1 (10 µM)
0: all assays above

CN1CC[C@@H](c2c(O)cc(O)c3c(=O)cc(-c4ccc(C(F)(F)F)cc4Cl)oc23)[C@@H]1CO [Voruciclib (hydrochloride)] (10 µM)
0: all assays above

A draw from above in order of molar mass, high to low:
C=CC(=O)Nc1cc(Nc2nccc(-n3cc(CN(C)C)c(-c4ccccc4)n3)n2)c(OC)cc1N1CCOCC1 [Lazertinib] (10 µM)
0: all assays above

Cc1ccc(NC(=O)c2ccnc(C(F)(F)F)c2)cc1-c1cc(OCCO)nc(N2CCOCC2)c1 (10 µM)
0: all assays above

CN1CC[C@@H](c2c(O)cc(O)c3c(=O)cc(-c4ccc(C(F)(F)F)cc4Cl)oc23)[C@@H]1CO [Voruciclib (hydrochloride)] (10 µM)
0: all assays above

C#Cc1cccc(Nc2ncnc3cc(OC)c(OCCCCCCC(=O)NO)cc23)c1 (2.5 µM)
0: all assays above

CCc1cncnc1N1CCN(Cc2nc3ccc(C(F)(F)F)cc3[nH]2)CC1 (10 µM)
0: all assays above

C[C@H](Nc1ncnc2[nH]cnc12)c1cc2ccc(F)cc2nc1-c1ccccn1 (10 µM)
0: all assays above

(next part)

Nc1n[nH]c2nc(-c3ccc(NS(=O)(=O)c4cc(Cl)ccc4F)cc3)cnc12 (10 µM)
5: SPHK1
2: RAF1
1: PTK2
0: all other assays above

CC(C)(O)[C@H]1CC[C@H](Nc2ccc3ncc(-c4cccc(C(F)(F)F)c4)n3n2)CC1 (10 µM)
2: PTK2
0: all other assays above

O=C(CNc1cccc(Cl)c1)NC1CCCN(c2ncnc3[nH]ccc23)C1 (stereo not given) (10 µM)
0: all assays above

O=c1cc(-c2cccc3c2Sc2ccccc2S3)oc(N2CCOCC2)c1 (10 µM)
0: all assays above
